The text below walks through data of paper PMC5356440.

Protein sequences, listed by entry. Tags and fused reporters are not part of them.
UniProt P30622: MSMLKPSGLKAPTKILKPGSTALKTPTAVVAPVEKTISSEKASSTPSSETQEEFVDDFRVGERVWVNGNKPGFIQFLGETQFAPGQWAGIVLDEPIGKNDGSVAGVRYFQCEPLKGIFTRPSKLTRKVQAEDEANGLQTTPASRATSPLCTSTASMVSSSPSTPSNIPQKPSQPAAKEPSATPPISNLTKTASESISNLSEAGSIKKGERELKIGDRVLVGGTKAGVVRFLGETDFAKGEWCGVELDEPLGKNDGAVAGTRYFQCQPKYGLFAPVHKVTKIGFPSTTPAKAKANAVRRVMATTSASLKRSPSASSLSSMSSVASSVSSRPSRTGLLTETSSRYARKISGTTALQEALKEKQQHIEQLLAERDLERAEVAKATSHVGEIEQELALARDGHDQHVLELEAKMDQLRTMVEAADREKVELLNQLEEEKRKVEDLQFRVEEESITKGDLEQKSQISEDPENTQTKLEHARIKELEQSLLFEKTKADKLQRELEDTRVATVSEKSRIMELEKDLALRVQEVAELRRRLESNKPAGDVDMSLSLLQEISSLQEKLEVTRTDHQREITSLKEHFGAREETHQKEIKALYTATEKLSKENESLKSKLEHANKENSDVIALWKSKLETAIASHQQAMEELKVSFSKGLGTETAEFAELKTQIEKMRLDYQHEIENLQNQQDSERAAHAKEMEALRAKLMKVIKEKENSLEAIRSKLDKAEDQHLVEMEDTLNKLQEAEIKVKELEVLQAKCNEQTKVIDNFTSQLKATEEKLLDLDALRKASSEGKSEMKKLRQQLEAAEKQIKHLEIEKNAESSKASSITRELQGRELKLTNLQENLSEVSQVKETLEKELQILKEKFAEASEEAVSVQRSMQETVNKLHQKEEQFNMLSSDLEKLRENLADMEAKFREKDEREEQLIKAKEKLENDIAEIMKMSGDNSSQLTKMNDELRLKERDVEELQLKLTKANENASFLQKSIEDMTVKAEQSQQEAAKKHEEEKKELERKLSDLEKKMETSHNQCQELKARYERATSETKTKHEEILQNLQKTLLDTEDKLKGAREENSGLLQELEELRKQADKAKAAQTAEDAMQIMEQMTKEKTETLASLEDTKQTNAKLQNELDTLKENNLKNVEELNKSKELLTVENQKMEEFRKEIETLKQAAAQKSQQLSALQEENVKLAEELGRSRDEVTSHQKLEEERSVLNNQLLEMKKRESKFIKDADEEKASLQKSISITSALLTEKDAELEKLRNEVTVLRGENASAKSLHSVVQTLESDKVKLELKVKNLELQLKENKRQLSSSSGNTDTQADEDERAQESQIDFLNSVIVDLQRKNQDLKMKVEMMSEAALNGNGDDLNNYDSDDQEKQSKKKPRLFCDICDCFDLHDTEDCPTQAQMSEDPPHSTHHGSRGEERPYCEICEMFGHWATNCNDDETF
UniProt P46940: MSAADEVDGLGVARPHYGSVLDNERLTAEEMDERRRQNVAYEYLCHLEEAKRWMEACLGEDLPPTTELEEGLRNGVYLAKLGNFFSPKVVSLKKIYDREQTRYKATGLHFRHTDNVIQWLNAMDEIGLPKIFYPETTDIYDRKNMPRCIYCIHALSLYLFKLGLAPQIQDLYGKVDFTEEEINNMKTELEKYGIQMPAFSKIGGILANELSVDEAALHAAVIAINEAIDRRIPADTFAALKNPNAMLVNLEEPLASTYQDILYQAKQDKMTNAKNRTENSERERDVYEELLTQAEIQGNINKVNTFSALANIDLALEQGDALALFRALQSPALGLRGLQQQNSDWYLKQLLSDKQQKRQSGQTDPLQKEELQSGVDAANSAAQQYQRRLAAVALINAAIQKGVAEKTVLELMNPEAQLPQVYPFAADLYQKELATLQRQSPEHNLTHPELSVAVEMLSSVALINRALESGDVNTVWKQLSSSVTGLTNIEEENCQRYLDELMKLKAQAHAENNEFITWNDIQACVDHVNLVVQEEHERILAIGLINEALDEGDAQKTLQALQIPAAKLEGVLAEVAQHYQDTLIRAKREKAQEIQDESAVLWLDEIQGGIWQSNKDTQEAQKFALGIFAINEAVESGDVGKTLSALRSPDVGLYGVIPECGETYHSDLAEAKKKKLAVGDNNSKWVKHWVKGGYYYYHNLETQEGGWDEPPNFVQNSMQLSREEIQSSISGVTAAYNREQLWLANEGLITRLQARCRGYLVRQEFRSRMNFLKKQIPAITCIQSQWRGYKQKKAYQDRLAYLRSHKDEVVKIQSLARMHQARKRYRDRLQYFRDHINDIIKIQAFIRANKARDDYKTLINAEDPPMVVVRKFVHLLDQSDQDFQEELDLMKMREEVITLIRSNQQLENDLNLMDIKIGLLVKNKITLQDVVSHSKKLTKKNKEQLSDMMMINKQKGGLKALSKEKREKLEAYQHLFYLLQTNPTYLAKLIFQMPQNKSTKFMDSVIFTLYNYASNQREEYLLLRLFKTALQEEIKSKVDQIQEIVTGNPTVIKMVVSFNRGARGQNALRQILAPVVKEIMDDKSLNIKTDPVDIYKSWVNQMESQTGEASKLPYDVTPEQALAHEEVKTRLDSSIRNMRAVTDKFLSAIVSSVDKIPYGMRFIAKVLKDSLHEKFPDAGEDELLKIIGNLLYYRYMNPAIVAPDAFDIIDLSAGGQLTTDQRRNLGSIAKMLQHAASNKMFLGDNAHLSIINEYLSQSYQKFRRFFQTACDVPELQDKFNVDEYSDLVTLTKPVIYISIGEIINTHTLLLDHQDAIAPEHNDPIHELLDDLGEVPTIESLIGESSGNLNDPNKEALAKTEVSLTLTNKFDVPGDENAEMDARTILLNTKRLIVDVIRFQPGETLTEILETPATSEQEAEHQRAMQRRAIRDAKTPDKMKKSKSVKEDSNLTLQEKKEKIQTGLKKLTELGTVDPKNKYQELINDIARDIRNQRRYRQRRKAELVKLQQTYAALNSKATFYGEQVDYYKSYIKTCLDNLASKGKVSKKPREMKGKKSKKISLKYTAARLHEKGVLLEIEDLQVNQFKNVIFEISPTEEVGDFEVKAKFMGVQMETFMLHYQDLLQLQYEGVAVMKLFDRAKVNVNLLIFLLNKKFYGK
UniProt P35222: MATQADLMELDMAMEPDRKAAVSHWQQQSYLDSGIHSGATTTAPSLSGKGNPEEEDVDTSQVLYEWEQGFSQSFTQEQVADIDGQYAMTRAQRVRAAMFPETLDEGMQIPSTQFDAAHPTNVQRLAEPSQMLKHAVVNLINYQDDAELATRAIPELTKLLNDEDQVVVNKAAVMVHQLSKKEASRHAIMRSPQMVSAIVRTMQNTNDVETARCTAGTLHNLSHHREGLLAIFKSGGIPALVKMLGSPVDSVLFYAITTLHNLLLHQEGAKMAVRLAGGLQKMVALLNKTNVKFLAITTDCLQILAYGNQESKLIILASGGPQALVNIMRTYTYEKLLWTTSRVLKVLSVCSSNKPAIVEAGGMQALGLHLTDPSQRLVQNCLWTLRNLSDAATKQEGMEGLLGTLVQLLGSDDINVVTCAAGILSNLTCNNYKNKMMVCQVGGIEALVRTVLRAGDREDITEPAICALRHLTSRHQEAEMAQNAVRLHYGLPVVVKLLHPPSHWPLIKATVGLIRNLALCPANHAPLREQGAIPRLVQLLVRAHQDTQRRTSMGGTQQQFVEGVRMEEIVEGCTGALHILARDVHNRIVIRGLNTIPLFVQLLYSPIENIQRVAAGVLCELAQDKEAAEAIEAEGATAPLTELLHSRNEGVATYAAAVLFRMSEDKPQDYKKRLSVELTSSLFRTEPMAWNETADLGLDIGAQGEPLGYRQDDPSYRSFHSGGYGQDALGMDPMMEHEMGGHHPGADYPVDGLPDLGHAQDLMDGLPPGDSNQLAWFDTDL

For this assay, the target named is CLIP-170 (human (endogenous in TC7)) (UniProt P30622). The assay can be described thus: co-IP; confluent TC7 cells lysed in M-PER; mouse monoclonal CLIP-170 F-3 (or mouse IgG as control) bound to Dynabeads protein G as bait; western blot of endogenous proteins. On the technique in general: A western blot detects proteins with antibodies after separation by electrophoresis.

Results are given in words; binding and its absence hold for the method and conditions named. Binding seen in cells or lysates may run through a third protein. Some binding calls cover weakened binding; strength is not graded here.

Regarding IQGAP1 (from UniProt P46940 1-1657), the binding entry is listed as “binds”. In the case of β-catenin (from UniProt P35222 1-781), the binding result is reported as “binds”.
